Source: patent US20120121508A1, “RADIOLABELED CGRP ANTAGONISTS” (Merck Sharp & Dohme Corp., priority 2009, published 2012)

System: CGRP receptor
Experiment: PET CGRP receptor occupancy study in rhesus monkey brain
Assay type: in vivo
Conditions: ±SE
Description: Baseline PET scans in rhesus monkey have confirmed the uptake and expected regional distribution of the PET tracer of [^11C]-Example 1 in the brain. […] In vivo occupancy studies were carried out with the compound of Example 1 to examine the utility of the PET tracer of [^11C]-Example 1 to establish a drug plasma level/CGRP receptor occupancy relationship. To establish steady plasma levels of drug, the compound of Example 1 was administered as an IV bolus plus constant infusion starting 60 minutes before the PET tracer of [^11C]-Example 1 injection; drug infusion was continued for the duration of the scan. Dynamic PET studies were acquired for 120-min following the PET tracer of [^11C]-Example 1 IV bolus administration. CGRP receptor availability was estimated using data-driven methods to describe the PET tracer of [^11C]-Example 1 plasma-brain kinetics. For each study, the PET tracer of [^11C]-Example 1 plasma concentration was obtained from the measurement of total radioactivity in arterial plasma with correction for the fraction of intact tracer as determined by HPLC analysis.
The absence of a reference region (devoid of CGRP receptor) requires the application of tracer kinetic modeling techniques using the PET tracer of [^11C]-Example 1 arterial plasma concentration in order to accurately quantify CGRP receptor occupancy in rhesus monkey. […]

CN1C[C@@](C)(c2cc(F)cc(F)c2)N(CC(=O)Nc2ccc3c(c2)C[C@@]2(C3)C(=O)Nc3ncccc32)C(=O)C12CCCC2 [Example 1, 2-[(8R)-8-(3,5-Difluorophenyl)-6,8-dimethyl-10-oxo-6,9-diazaspiro[4.5]dec-9-yl]-N-[(2R)-2′-oxo-1,1′,2′,3-tetrahydrospiro[indene-2,3′-pyrrolo[2,3-b]pyridin]-5-yl]acetamide]
Hill coefficient n of plasma level/occupancy relationship: 0.49±0.07
